From patent publication US10806804B2, “Compounds having RD targeting motifs and methods of use thereof” (Washington University, priority 2015, dated 2020)
Not every detail of the peptide structures is certain; ends, links or a residue may be inferred. Positions of bridges follow the written chain, without caps; N, C: chain ends. Non-standard residues stand in square brackets, D forms with d. Residues, ends and D or L forms follow the SMILES beside them. *: point of attachment. Cypate = CC1(C)C(/C=C/C=C/C=C/C=C2/N(CCC(=O)*)c3ccc4ccccc4c3C2(C)C)=[N+](CCC(=O)O)c2ccc3ccccc3c21

Assay: spectral properties for NIR fluorescence imaging
Type: physicochemical
Conditions: in serum and 20% aq. DMSO solution

## CC1(C)C(/C=C/C=C/C=C/C=C2/N(CCC(=O)N[C@@H]3CSSC[C@@H](C(=O)N[C@@H](Cc4ccc(O)cc4)C(=O)O)NC(=O)[C@@H]4CCCN4C(=O)[C@H](CO)NC(=O)[C@H](CC(=O)O)NC(=O)[C@H](CCCNC(=N)N)NC(=O)CNC3=O)c3ccc4ccccc4c3C2(C)C)=[N+](CCC(=O)O)c2ccc3ccccc3c21 [LS838, Cypate-Cyclo(DCys-Gly-Arg-Asp-Ser-Pro-Cys)-Tyr-OH] (Cypate-[dC]GRDSPCY-OH; disulfide 1-7)
  fluorescence quantum yield: 10%
